The values below come from paper PMC5290148.

Sequences of proteins named here, by UniProt entry; tags and fusion partners are left off. Residues count along the entry.
UniProt P11021, residues 19-654: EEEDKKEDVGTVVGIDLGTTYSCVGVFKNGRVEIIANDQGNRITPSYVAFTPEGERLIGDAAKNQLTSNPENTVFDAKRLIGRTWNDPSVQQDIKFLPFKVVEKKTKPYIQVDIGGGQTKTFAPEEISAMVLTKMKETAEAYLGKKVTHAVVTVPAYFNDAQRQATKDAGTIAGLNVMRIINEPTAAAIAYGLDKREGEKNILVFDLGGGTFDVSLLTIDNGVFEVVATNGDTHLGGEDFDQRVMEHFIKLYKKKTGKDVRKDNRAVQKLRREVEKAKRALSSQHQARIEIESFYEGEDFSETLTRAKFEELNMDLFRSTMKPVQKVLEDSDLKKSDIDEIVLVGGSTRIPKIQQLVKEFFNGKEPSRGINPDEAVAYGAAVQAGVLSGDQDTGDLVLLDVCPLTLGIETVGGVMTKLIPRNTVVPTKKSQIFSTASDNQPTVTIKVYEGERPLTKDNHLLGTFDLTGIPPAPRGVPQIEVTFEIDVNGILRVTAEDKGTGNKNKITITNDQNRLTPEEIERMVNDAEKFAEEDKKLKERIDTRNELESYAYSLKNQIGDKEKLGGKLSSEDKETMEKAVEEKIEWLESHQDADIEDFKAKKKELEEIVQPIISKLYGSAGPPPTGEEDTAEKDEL

No constants are given. Whether binding was seen depends on the method and setting. In cells and extracts the contact can be indirect. Sequences can lack the tags named with a protein.

In the experiment the target is T1, Flag-DDRGK1 wild-type (UniProt Q96HY6).
T1 sequence: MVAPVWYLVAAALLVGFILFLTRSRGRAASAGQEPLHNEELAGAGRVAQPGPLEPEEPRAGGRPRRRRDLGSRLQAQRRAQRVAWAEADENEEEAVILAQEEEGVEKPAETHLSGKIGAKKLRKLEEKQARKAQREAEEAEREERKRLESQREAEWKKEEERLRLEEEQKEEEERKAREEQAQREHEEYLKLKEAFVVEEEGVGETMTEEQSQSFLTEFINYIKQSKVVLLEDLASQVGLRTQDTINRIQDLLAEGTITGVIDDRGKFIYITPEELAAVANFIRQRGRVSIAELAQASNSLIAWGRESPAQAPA
In words: co-IP; Flag M2 affinity gel immunoprecipitates of HEK293T cells transfected with Flag-Vector, Flag-DDRGK1 WT or K267R; endogenous partners found by western blot; also in mock- or Tg-treated (2.5 μM) cells and in control and Ufm1-knockdown cells.

As for “BiP, endogenous (from UniProt P11021 19-654)”, the binding entry was “no binding”.
